The values that follow come from publication PMC4302594.

The target of test [1] is GST-fused Chlamydia pneumoniae TW183 chlamydial outer protein N (GST-CpCopN) (Chlamydia pneumoniae TW183). As to the kind of experiment: affinity purification with mass spectrometry; GST-fusion proteins on glutathione-agarose beads mixed with soluble fraction of HEp-2 cells, 4-12 h at 4°C, 40 mM Tris-HCl pH 7.5, 150 mM NaCl, 0.5% Triton-X-100; eluate on SDS-PAGE with Coomassie staining, specific band cut out for nano-LC-MS/MS; only the target purified.

Test [2] deals with GST-fused Chlamydia trachomatis D/UW-3/CX chlamydial outer protein N (GST-CtCopN) (Chlamydia trachomatis D/UW-3/CX). The description is as above.

No constants are given. Whether binding was seen depends on the method and setting. In cells and extracts the contact can be indirect. A yes stands for co-enrichment or nearness to the bait. Other partners may have been found. For some assays here: No binding means not detected with the bait.

B1: fructose bisphosphate aldolase A (enzyme, UniProt P04075 1-364)
chain: MPYQYPALTPEQKKELSDIAHRIVAPGKGILAADESTGSIAKRLQSIGTENTEENRRFYRQLLLTADDRVNPCIGGVILFHETLYQKADDGRPFPQVIKSKGGVVGIKVDKGVVPLAGTNGETTTQGLDGLSERCAQYKKDGADFAKWRCVLKIGEHTPSALAIMENANVLARYASICQQNGIVPIVEPEILPDGDHDLKRCQYVTEKVLAAVYKALSDHHIYLEGTLLKPNMVTPGHACTQKFSHEEIAMATVTALRRTVPPAVTGITFLSGGQSEEEASINLNAINKCPLLKPWALTFSYGRALQASALKAWGGKKENLKAAQEEYVKRALANSLACQGKYTPSGQAGAAASESLFVSNHAY
With B1, the binding entry in test [1] was “binds”; in test [2] it was “no binding”.
